This is an account of results in PubChem BioAssay AID2610 (Broad Institute, 2010).

Molecules are shown by their SMILES. The list shows a part of the results. Entries without a call are filed as inconclusive in the source.

A short description of the test: cytotoxicity toward RAS-transformed BJeLR fibroblasts, dose response, cell-based, alamar blue fluorescence, 48 h, cherrypicked samples (AID 2610). To be noted: BJeLR fibroblast viability, at 13.3 µM (top of the series). On the technique in general: Resazurin is reduced to fluorescent resorufin, in cell work by metabolically active cells.

On to `N#Cc1ccc(-c2cccs2)nc1SCc1cccnc1`, for which the activity, negative = growth loss is -68.9%.
